Source: publication PMC10042849

Amino acid sequences for entries named in this document (tags omitted). Residues count along the entry.
UniProt Q8A0N4, 27-476 D312A/E314L limits assumed: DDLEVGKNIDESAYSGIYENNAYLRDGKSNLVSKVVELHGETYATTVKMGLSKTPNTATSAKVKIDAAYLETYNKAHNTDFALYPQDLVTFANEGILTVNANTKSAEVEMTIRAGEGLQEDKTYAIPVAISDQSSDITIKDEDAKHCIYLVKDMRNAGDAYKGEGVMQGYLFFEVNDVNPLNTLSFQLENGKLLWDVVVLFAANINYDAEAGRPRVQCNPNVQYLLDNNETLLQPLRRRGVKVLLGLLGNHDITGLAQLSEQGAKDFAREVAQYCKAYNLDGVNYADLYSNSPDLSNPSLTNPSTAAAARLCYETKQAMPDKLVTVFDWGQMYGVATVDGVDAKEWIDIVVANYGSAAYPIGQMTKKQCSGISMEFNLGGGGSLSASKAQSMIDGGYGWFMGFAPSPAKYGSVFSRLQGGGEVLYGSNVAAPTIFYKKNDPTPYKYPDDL

Biological target: EndoBT-3987 (Bacteroides thetaiotaomicron, UniProt Q8A0N4, D312A/E314L)
Assay: methyl-TROSY NMR titration, 2D line-shape fitting (TITAN), two-state model
Conditions: catalytically inactive mutant; 20 mM Tris-d11 pH* 7.50, 50 mM NaCl, D2O, 298 K; MILV-labelled protein

CC(=O)N[C@@H]1[C@@H](O)[C@H](O[C@@H]2O[C@H](CO)[C@@H](O[C@@H]3O[C@H](CO[C@H]4O[C@H](CO[C@H]5O[C@H](CO)[C@@H](O)[C@H](O)[C@@H]5O[C@H]5O[C@H](CO)[C@@H](O)[C@H](O)[C@@H]5O)[C@@H](O)[C@H](O[C@H]5O[C@H](CO)[C@@H](O)[C@H](O)[C@@H]5O[C@H]5O[C@H](CO)[C@@H](O)[C@H](O)[C@@H]5O)[C@@H]4O)[C@@H](O)[C@H](O[C@H]4O[C@H](CO)[C@@H](O)[C@H](O)[C@@H]4O[C@H]4O[C@H](CO)[C@@H](O)[C@H](O)[C@@H]4O[C@H]4O[C@H](CO)[C@@H](O)[C@H](O)[C@@H]4O)[C@@H]3O)[C@H](O)[C@H]2NC(C)=O)[C@@H](CO)O[C@H]1NC(=O)C[C@H](N)C(=O)O
Kd: 1700 nM

The structures given here were assigned with low confidence; some may be wrong.
